# Laboratory results reported in PubChem BioAssay AID1347423 (Functional Genomics Laboratory (NCATS/FGL), 2020).
# The whole screen tested about 52,000 sequences, of which about 210 (0.4%) were called active.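 Rule for the calls: active = gene whose silencing raises cell survival under the drug, median off-target-corrected z-score across its silencing RNAs 2 or more; inactive = the rest.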 Some of the results follow.
# Assay: Resistance to Poly (ADP-Ribose) Polymerase inhibitor: Gene Identification via Genome-wide siRNA Screen
# Details: mouse BRCA2 R2336H ES cells, olaparib, CellTiter-Glo viability; hits give high values
# How it was run: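 Mouse BRCA2 R2336H ES cells were reverse-transfected with siRNA (20 nM final), treated at 48 h with 500 nM olaparib, and read by CellTiter-Glo after 72 h. Scores: MAD-based z per siRNA, median per gene, seed off-target correction.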
row,Sequence,z-score
1,GGAUCAUGUGUGAAAUCCUTT against Harsl,inactive: 1.11
2,GCCUUAUUAGAGAAAAGAGTT against Krt2-1,inactive: -2.01
3,GCGAAUGUAGUGUAUUAUGTT against Prkcm,inactive: 0.0536
4,GGAGAUUUAUACACACUUGTT against Snx17,inactive: -0.118
5,GGGAAACUCAAACUGAUUGTT against 9930104L06Rik,inactive: 0.614
6,GGAAAACACAAGCAAUACATT against Pus3,inactive: -0.383
7,GGAAGUGAGUUUCAAAGCCTT against Hist1h1t,inactive: -0.503
8,GGAAAACAGAUACGUGCAUTT against Ccne2,inactive: 1.21
9,GGAAGGAGAAAAGCUUUCUTT against Olfr992,inactive: -0.105
10,GGGAUCAACAUGAUAUUUUTT against Lrrc21,inactive: -0.124
11,CCGGUGGUAGUUGGUUUAATT against Atp1b1,inactive: -1.03
12,GCUUCAGAACAAGUCCCUGTT against 2410008K03Rik,inactive: 0.561
13,CCUCUGUUUGUGCGCCAUATT against Uqcrfs1,inactive: 1.2
14,GGCCAGCUGAAAGAGGUUCTT against 2310003L22Rik,inactive: -0.0092
15,GCACACCCAAUGCUCUAAGTT against Mare,inactive: 0.284
16,GAAAGACAAGAAGCAGAUGTT against Olig2,inactive: -1.23
17,GCAAGUUCGAAUCCUCCGUTT against Dach2,inactive: 0.747
18,GCAUAUGGAGCAGUCAUUGTT against LOC619945,inactive: 0.402
19,GGAUUGUACGCUUUUAUGATT against Fzd1,inactive: 0.968
20,AAAAAUGUCGGAUUCCCAATT against Gpr113,inactive: 0.745
21,GGUUACCUACCUGAUGCCATT against Cd6,inactive: -0.0209
22,GGACGGUGACAAGAACAACTT against Tnnc1,inactive: -0.0203

row,Sequence,z-score
1,GGAUGACCUUGAAAGCAGUTT against Usp29,inactive: -0.694
2,GGCUCAGUACUUUCUAAAATT against V1rg1,inactive: -0.536
3,GGAAAGAAAGUUCUUUAGATT against D330023I21Rik,inactive: 0.809
4,GGAAUACAGGUUUUCUUAATT against Raf1,inactive: 1.16
5,GGAAUUGAGAAAUCUAAUGTT against Rev1l,inactive: -0.921
6,GGUCAUGACCCAUGUCAGCTT against Junb,inactive: 1.84
7,GGAGAAAUAACUGAAAUUCTT against Klhl13,inactive: 0.783
8,CCAUGCAUCUAAGUCUCGATT against Trpm3,inactive: 1.35
9,GGAAUGACAAGAUUAUUGUTT against Ercc3,inactive: 2.19
10,CCAUCUCCUUAUGGGCAAUTT against Stat6,inactive: -0.199
11,CCCAAAUAAAGUUCACUGGTT against 4930566A11Rik,inactive: 0.356
12,GGUUUGUGACAUUAUCUGCTT against Wrnip1,inactive: 0.43
13,GCGUGACGAGCUAACAGAATT against Stac2,inactive: -0.767
14,GGAGUUUCAGAGCAAGCAGTT against Atp6v1g2,inactive: -0.291
15,GGACGAGGUAGCUUAUUGCTT against Pnn,inactive: 0.546
16,GGGUGUGAUGGUUCUCACCTT against Olfr777,inactive: -0.411
17,GGGCAGCUACGUCAUUAAGTT against Prkg2,inactive: 1.36
18,GCCAUGGCAUAAAAACUGGTT against P2rxl1,inactive: 0.917
19,GGACAAGUACCAGCAGCAGTT against Spry2,inactive: 1.89
20,CCCUAGGCCUUUUUUCUGCTT against Olfr930,inactive: -0.0862
21,CGCUAGUUUGGACGGUUUUTT against Odf3,inactive: -0.182
22,GGAAGGUAAUUGCUUUUAGTT against Gmeb1,inactive: -1.2

row,Sequence,z-score
1,GCAGUCUGGUUCUCUCAAATT against Cryl1,inactive: 2.21
2,CCUGCUAGUGGAGAACAUCTT against Rnf30,inactive: -2.54
3,GCAAGUGUCUUGUCCCAGGTT against D7Ertd680e,inactive: 0.19
4,AAGACCUUCCACAUGUUAATT against LOC434197,inactive: 0.159
5,GGAAUUCAAGGGCUCCACATT against Grip1,inactive: 0.637
6,GGAUAUCAAUAGCCUCAACTT against Stx5a,inactive: -1.38
7,GCAGGAUACAUUAAUUGUUTT against AW011752,inactive: -0.146
8,GGCAAAACCUACAUGGCCCTT against Drd1a,inactive: 0.35
9,CCUCAAACUCGGUUUGAUUTT against Acp6,inactive: -1.08
10,GGCCGAUUGUUGGACAUUCTT against Card11,inactive: -0.061
11,GGAAACAUCUUGUUGAAGATT against B630019A10Rik,inactive: -0.374
12,CCUAAACAUCACUUGCUCUTT against Cd200,inactive: -1.11
13,CGCAUGUGAUUCCUUAUGATT against Sqrdl,inactive: -0.298
14,CGGAUUUAAGCAGAGUGGATT against Fgl1,inactive: 2.1
15,GGAAAAUUGAUAGCAAGCUTT against LOC382105,inactive: 1.12
16,GGUAGUAUUCAGUGAAUACTT against Cks2,inactive: -0.528
17,GGACCUGUCUUCAUUGGAGTT against Ngb,inactive: 2.47
18,GGUGUGUGAGAUAAUUGAGTT against Cops6,inactive: -1.85
19,GGCUCUUGUCACAUGAUCATT against 5830427H10Rik,inactive: -0.783
20,CCUUUCAAGGAGAUAUAAUTT against Gcm2,inactive: -1.1
21,CCACAGACUCUUAAUUAGATT against Ap3b1,inactive: 0.44
22,GGAAAUGACCACAAUAUUUTT against Plaa,inactive: -0.0931

# Retrieved one by one from the list above:
row,Sequence,z-score
19,GGCUCUUGUCACAUGAUCATT against 5830427H10Rik,inactive: -0.783
22,GGAAAUGACCACAAUAUUUTT against Plaa,inactive: -0.0931
7,GCAGGAUACAUUAAUUGUUTT against AW011752,inactive: -0.146
8,GGCAAAACCUACAUGGCCCTT against Drd1a,inactive: 0.35

# (list continues)

row,Sequence,z-score
1,GGACAACAAAGGGAGAUUCTT against Kctd12b,inactive: -0.941
2,GGCUCUUAAUACCACCUACTT against Egr1,inactive: -0.507
3,GGACAUACAAAUCAGGUGGTT against 5830404H04Rik,inactive: 0.749
4,GCUUAAGUUCCUUCUUCUCTT against Tas2r144,inactive: 0.266
5,CGUAGCACUUCUUCUCUUATT against Dnclic2,inactive: 1.72
6,GCCGUUUCACAGAGUACUCTT against 2610020N02Rik,inactive: -2.16
7,CGACUUGAACUCUAUGGCGTT against Ascl1,inactive: 0.883
8,CGAUUAUCAACUCAUAUGCTT against Eif5a2,inactive: 0.218
9,ACGUAGGUUAACUGAACAUTT against Zfp187,inactive: -1.06
10,CCCUAUGAUUCCGACAACCTT against 4831417L10,inactive: 0.824
11,GGUAUGCAUGAACAUAAUGTT against Prlpo,inactive: -0.21
12,GGAUCAAAAGGUGAAUGCUTT against V1re10,inactive: 1.61
13,GCAUUAGUCAUUGUUAACGTT against Hsd17b4,inactive: 0.608
14,GGUGUAAAAAUGUGAAAGATT against Suv39h2,inactive: 0.44
15,CGAGACUCUAUCUUUGUCCTT against Siat6,inactive: -0.0696
16,GCUACGAGAGGUCAUUUCCTT against Chrnb1,active: 2.48
17,GGUUAAGGGCAAAAUUCUGTT against Rpl21,inactive: -3.09
18,CCACUGCACUGUAAAUCAATT against 2900070E19Rik,inactive: 1.28
19,GGACUCUGAAUCAACUUGGTT against Stx7,inactive: 0.388
20,CGACUACAAUGGGCUCAAGTT against Kifc3,inactive: -1.3
21,GGAGGUAGAAUGUUAUGUGTT against Gja9,inactive: 0.747
22,GGCAACACAAGUGAGAAUGTT against BC026432,inactive: -0.267

# Looked up above.
# AAGACCUUCCACAUGUUAATT against LOC434197 – z-score: inactive: 0.159
# GGGCAGCUACGUCAUUAAGTT against Prkg2 – z-score: inactive: 1.36
# GGUUACCUACCUGAUGCCATT against Cd6 – z-score: inactive: -0.0209
# CGACUACAAUGGGCUCAAGTT against Kifc3 – z-score: inactive: -1.3

# (next part)

row,Sequence,z-score
1,GGAAGCUUUUGUCGGUCCATT against Hap1,inactive: -1.12
2,GGCCAAUGCACUCCUGAUCTT against Gna11,inactive: -1.05
3,GGGUCUCCUCUCUAAUCUATT against Psp,inactive: -0.886
4,GGAUUGAUAAUGAACUUCGTT against Slc13a5,inactive: 2.17
5,GGAAGAUGAUACAAGCAAATT against A930002I21Rik,inactive: 0.425
6,GGUAGAGCAAGACCUUCCUTT against P4ha3,inactive: -0.609
7,CCUAAAGUCUCUGAAUCAGTT against Fyb,inactive: 0.943
8,GGAUUUGGCAACAGACUUUTT against Ryr2,inactive: -0.339
9,CCCAGUUGCUAUGCUUGACTT against Defb37,inactive: -0.505
10,GCCUGUAGACACAAAAUUUTT against Akp3,inactive: 0.51
11,GGAGAUACUUCGAUACUUUTT against Baz1b,inactive: -1.2
12,GGCCAAUUAACUAUGAAUUTT against 4833405L16Rik,inactive: 0.764
13,GGGCUAGACAUCAUCACCATT against Trit1,inactive: -0.817
14,CCGGAAGACUGGUAUUCUCTT against Nr1h4,inactive: 2.66
15,CCAGCUGUCACAUGAAGUGTT against Fbxo38,inactive: 0.86
16,GGAAAAAGAUCUUGGAAGUTT against Rwdd2,inactive: 1.47
17,GCAGGUGAAACAAUCGCCUTT against Catnal1,inactive: 1.59
18,CCUUGAGGAACCAACAAAATT against Rarb,inactive: 1.44
